Reference: PubChem BioAssay AID493014 (National Center for Advancing Translational Sciences (NCATS), 2011)
The campaign covered roughly 340,000 compounds. About 170 (0.05%) were called active. The inconclusive results got no clear call from the source; some entries with a clear call stand among them for comparison. Calls come from the whole dose curve; as a rule, active = well fitted inhibition curve with a large enough effect in the signal ratio, with a control signal flat (not every such curve was filed as active); inconclusive = small, poorly fitted or top-dose-only effect, or effect the other way, or a change in a side signal; inactive = flat fitted curve, though single readings scatter; the % refers to the signal ratio. A potency beside an inconclusive call is a rough fit, not a confirmed value.

Experiment: qHTS Assay to Find Inhibitors of Chronic Active B-Cell Receptor Signaling;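 for activity change, negative = inhibition: plate controls were basal doxycycline-induced cells for no effect and cells given 10 µM MG132 for full effect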
Settings: ABC-DLBCL IkBa-CBG/CBR reporter, luminescence ratio (green luciferase fused to IkBa over red control in TMD8 lymphoma cells), 4 h; activity change, negative = inhibition: at 46.1 µM (top of the series)
Outline: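 TMD8 ABC-DLBCL cells carrying doxycycline-inducible green luciferase fused to IkappaBalpha plus unfused red luciferase were exposed to compounds (up to 46 uM) for 4 hrs at 37C. Activity came from the overlap-corrected green/red luminescence ratio.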
Potency is the fitted concentration of half-maximal effect.

Compound | activity change, negative = inhibition | Potency
Cc1noc(C)c1COc1ccccc1C(=O)NNC(=O)c1ccccc1 | inconclusive: -2.98% | 
Cc1ccc(NC(=O)c2cc(-c3ccccc3O)n[nH]2)cc1C |  | inconclusive: 22.4 µM [falling, partial curve]
O=C(CSc1nc2ccccc2s1)N1CCN(C(=O)c2ccco2)CC1 | inconclusive: -6.29% | 
O=C(Cn1cnc2c(nnn2Cc2ccc(Cl)cc2)c1=O)N1CCN(c2ccccc2)CC1 |  | inconclusive: 22.4 µM [falling, single point]
NC(=O)c1oc2ccccc2c1NC(=O)c1ccc([N+](=O)[O-])o1 | inconclusive: 4.55% | 
COc1ccc(-n2nc([N+](=O)[O-])c(=NCc3ccc4c(c3)OCO4)n2O)cc1 | inactive | 
CN(C)CCn1c(C(=O)Nc2ccccc2)cc2ccccc21 | inconclusive: -3.03% | 
CCC(C)Sc1ccc([C@@H]2[C@@H]3C(=O)N(C)C(=O)[C@@H]3[C@]3(C(=O)OC)CCCCN23)cc1 (stereo partly specified) | inactive | 
COc1cccc(N2CN(CCc3ccccc3)CNC2=S)c1 | inactive | 
CCOC(=O)c1ccc(NC(=S)N2CCN(Cc3ccccc3)CC2)cc1 | inconclusive: 17.4% | 
O=C(O)C1CCN(S(=O)(=O)c2ccc(N3CCCC3C(=O)O)c([N+](=O)[O-])c2)CC1 (stereo unspecified) | inactive | 
CCN1CCCC1CNC(=O)c1[nH]c2ccc(OC)cc2c1C (stereo unspecified) | inconclusive: -2.54% | 
O=C(COC(=O)c1ccc([N+](=O)[O-])s1)c1ccc[nH]1 | inconclusive: 8.4% | 
Cc1onc(-c2ccccc2)c1NC(=O)N(CCC(=O)O)Cc1ccccc1 | inactive | 
CC(=O)NC(=S)Nc1ccc(NC(=S)NC(=O)c2ccc([N+](=O)[O-])cc2)cc1 | inconclusive: -6.7% | 
CCOc1cccc(C(=O)NC2CCCCC2)c1 |  | inconclusive: 29.1 µM [falling, partial curve, poor fit]
COc1ccc(C[C@H]2CN3C(=NC[C@@H]3C(C)C)N2C[C@H](C)NC(=O)c2ccc(C)c(Br)c2)cc1 | inactive | 
CN1CCN(c2ccccc2NC(=O)c2ccc(-c3ccccc3)cc2)CC1 |  | inconclusive: 23.1 µM [falling, single point]
O=C(Nc1cc(Br)ccc1O)c1cc(-c2ccccc2)on1 | inconclusive: -26.5% | 
Cc1onc(-c2ccccc2Cl)c1C(=O)NC(=S)Nc1ccc(C(C)C)cc1 | inconclusive: 23.1% | 
CCN(CC)S(=O)(=O)c1ccc(OC)c(NC(=O)c2ccc(-n3cncn3)c([N+](=O)[O-])c2)c1 | inconclusive: 1.66% | 

Ordered by length of the SMILES (descending): part of the list above.
Compound | activity change, negative = inhibition | Potency
CCN(CC)S(=O)(=O)c1ccc(OC)c(NC(=O)c2ccc(-n3cncn3)c([N+](=O)[O-])c2)c1 | inconclusive: 1.66% | 
O=C(O)C1CCN(S(=O)(=O)c2ccc(N3CCCC3C(=O)O)c([N+](=O)[O-])c2)CC1 (stereo unspecified) | inactive | 
CCOC(=O)c1ccc(NC(=S)N2CCN(Cc3ccccc3)CC2)cc1 | inconclusive: 17.4% | 

(listing goes on)

Compound | activity change, negative = inhibition | Potency
COc1ccc(C(=O)Nc2c(C)cc(C)cc2C)cc1OC | inconclusive: 1.18% | 
Cc1cc(C)n(CCCN2CCC(C(=O)Nc3cccc(-c4cccc(F)c4)c3)CC2)n1 | inconclusive: -4.32% | 
CCOC(=O)c1c(NC(=O)CCS(=O)(=O)c2ccccc2)sc2c1CC(C)(C)NC2(C)C | inactive | 
O=C(NC1CCN(Cc2ccccc2)CC1)c1cccc(S(=O)(=O)Nc2ccc(F)cc2)c1 | inconclusive: -14.7% | 
O=C(/C=C/c1ccccc1)Nc1ccc2c(c1)OCCO2 |  | inconclusive: 25.1 µM [falling, single point]
O=C(Nc1cccc(Cl)c1)Nc1ccc(Br)cc1F | inconclusive: 6.32% | 
Cc1ccc(NC(=S)NC(=O)C2CC2)c(C)c1 | inconclusive: 0.46% | 
Cn1cnc(Sc2ncnc3nc[nH]c23)c1[N+](=O)[O-] | inconclusive: -0.156% | 
CC1CCC(C(C)C)C(OC(=O)CSc2nc(N)cc(=O)[nH]2)C1 (stereo unspecified) | inconclusive: 7.62% | 
O=S(=O)(C/C(=C/CO)S(=O)(=O)c1ccccc1)c1ccccc1 | inconclusive: 21% | 
COC(=O)C1CCN(C(=O)COC(=O)CC(NC(C)=O)c2ccccc2)CC1 (stereo unspecified) | inconclusive: -10.4% | 
COc1cc2c(cc1OC)C(c1ccccc1)=NCC2 |  | inconclusive: 17.8 µM [falling, partial curve, poor fit]
CCc1nonc1NC(=O)c1oc2ccc(F)cc2c1C | inactive | 
COc1cccc(NC(=O)Nc2nnc(-c3ccccc3SCc3ccccc3)s2)c1 | inconclusive: 7.17% | 
Cc1ccc(SCC(=O)OCC(=O)N(C)CC(=O)Nc2ccc(F)cc2)cc1 | inconclusive: -19.6% | 
c1cc2[nH]snc2c2nc(C3CC3)nc12 | inconclusive: 1.64% | 
O=C1NC(=S)CN1c1ccccc1 | inconclusive: -4.76% | 
O=C(Cn1cnc2c(NCc3ccccc3)ncnc21)NCCCN1CCCC1=O | inactive | 
C=CCSC1=C(C#N)C(c2ccccc2Cl)C(C(=O)c2cccs2)C(O)(C(F)(F)F)N1 (stereo unspecified) | inconclusive: 6.93% | 
CC1Cn2c(nc(=O)c3c2NCN(CCc2ccccc2)C3)S1 (stereo unspecified) | inconclusive: 9.51% | 
